Data reported in publication PMC10364419.

By UniProt entry, the sequences of proteins in these tests, tags left out.
UniProt O00165: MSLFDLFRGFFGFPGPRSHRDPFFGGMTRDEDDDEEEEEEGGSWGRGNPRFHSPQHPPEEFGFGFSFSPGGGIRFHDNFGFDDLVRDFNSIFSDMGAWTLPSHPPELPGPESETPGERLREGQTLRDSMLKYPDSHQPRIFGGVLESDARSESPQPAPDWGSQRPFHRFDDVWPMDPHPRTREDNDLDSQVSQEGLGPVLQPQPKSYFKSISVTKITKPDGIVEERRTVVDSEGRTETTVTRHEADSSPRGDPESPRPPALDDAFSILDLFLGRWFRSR
UniProt P46940: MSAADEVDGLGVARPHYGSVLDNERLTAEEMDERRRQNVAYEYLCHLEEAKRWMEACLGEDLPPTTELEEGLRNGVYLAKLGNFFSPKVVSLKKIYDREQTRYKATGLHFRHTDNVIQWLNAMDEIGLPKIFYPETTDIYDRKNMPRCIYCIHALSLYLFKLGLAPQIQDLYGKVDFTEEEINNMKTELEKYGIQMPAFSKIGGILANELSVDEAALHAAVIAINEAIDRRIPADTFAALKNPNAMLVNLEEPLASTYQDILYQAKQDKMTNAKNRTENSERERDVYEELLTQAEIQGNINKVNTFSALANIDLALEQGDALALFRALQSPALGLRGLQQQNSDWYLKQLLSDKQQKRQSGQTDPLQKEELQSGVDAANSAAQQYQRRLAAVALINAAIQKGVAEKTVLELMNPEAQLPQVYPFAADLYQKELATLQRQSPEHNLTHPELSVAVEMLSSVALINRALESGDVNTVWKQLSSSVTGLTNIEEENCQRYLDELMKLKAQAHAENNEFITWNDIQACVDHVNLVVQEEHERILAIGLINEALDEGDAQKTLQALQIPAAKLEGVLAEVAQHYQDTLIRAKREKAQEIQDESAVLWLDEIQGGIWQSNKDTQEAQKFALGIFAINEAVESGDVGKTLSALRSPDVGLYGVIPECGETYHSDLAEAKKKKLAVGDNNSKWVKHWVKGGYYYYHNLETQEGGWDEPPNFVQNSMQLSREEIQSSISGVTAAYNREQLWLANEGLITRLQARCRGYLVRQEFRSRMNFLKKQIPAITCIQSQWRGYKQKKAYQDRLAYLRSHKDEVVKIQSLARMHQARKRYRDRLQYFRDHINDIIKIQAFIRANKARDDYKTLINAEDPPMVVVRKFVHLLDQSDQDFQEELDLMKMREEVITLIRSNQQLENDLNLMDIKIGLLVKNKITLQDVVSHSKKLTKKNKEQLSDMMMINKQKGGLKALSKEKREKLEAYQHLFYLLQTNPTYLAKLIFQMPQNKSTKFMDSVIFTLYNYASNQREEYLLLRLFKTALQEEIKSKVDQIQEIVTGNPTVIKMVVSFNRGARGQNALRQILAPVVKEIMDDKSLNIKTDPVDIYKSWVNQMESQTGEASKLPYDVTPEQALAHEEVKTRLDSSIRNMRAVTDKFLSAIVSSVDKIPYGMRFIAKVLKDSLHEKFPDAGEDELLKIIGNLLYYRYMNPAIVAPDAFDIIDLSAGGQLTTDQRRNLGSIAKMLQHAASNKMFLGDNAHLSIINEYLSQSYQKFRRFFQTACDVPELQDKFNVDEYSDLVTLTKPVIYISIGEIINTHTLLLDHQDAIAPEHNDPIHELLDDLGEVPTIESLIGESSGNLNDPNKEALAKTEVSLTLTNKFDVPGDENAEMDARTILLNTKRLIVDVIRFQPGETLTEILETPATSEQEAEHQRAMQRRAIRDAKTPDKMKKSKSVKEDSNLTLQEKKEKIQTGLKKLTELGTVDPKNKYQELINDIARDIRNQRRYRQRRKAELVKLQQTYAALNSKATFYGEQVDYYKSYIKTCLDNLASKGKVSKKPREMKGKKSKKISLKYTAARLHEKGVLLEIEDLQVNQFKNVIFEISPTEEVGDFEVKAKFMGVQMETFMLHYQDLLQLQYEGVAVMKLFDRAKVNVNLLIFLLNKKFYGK

Biological target: HA-Hax1 (UniProt O00165)
Test: affinity purification with mass spectrometry; anti-HA immunocomplexes from HA-Hax1-transfected HEK293T cells, resolved by SDS-PAGE, bands excised, LC-MS/MS

IQGAP1 (endogenous) (from UniProt P46940 1-1657)
binding: binds

These are yes or no findings as the source states them, for the method shown. Binding seen in cells or lysates may run through a third protein. A yes stands for co-enrichment or nearness to the bait. Other partners may have been found.
